Article PMC6332090, “Synthesis and Preliminary Evaluation of N-Oxide Derivatives for the Prevention of Atherothrombotic Events” (Molecules, 2015)

Assay: In vitro nitric oxide production: nitrite quantification by Griess reaction with L-cysteine
Conditions: 1 h at 37 °C, pH 7.4 buffered water, 1:50 molar excess of L-cysteine, compound 10^−4 M, mean ± SEM

## CC(=O)Oc1ccccc1C(=O)Oc1cccc(C(=O)N/N=C/c2c(-c3ccccc3)no[n+]2[O-])c1 [Compound 9a, (E)-3-((2-(3-((2-Acetoxybenzoyl)oxy)benzoyl)hydrazono)methyl)-4-phenyl-1,2,5-oxadiazole 2-oxide]
  NO Release Data %NO2− (mol/mol), 50 × 10^−4 M L-Cys: 7.0 ± 0.8%

## CC(=O)Oc1ccccc1C(=O)Oc1ccc(C(=O)N/N=C/c2ccc3c(c2)no[n+]3[O-])cc1 [Compound 14b, (E)-5-((2-(4-((2-Acetoxybenzoyl)oxy)benzoyl)hydrazono)methyl)benzo[c][1,2,5]oxadiazole 1-oxide]
  NO Release Data %NO2− (mol/mol), 50 × 10^−4 M L-Cys: 0%

## (E)-3-((2-(4-((2-Acetoxybenzoyl)oxy)benzoyl)hydrazono)methyl)-4-methyl-1,2,5-oxadiazole 2-oxide [Compound 4b]
  NO Release Data %NO2− (mol/mol), 50 × 10^−4 M L-Cys: 1.8 ± 1.7%

## 3-((2-(4-Hydroxybenzoyl)hydrazono)methyl)-4-methyl-1,2,5-oxadiazole 2-oxide [Compound 3b]
  NO Release Data %NO2− (mol/mol), 50 × 10^−4 M L-Cys: 1.9 ± 1.1%

## O=[N+]([O-])O[C@H]1CO[C@H]2[C@@H]1OC[C@H]2O[N+](=O)[O-] [DNS, Isosorbide dinitrate, reference compound]
  NO Release Data %NO2− (mol/mol), 50 × 10^−4 M L-Cys: 10.5% and 10.5 ± 0.7%

## 5-((2-(3-Hydroxybenzoyl)hydrazono)methyl)benzo[c][1,2,5]oxadiazole 1-oxide [Compound 13a]
  NO Release Data %NO2− (mol/mol), 50 × 10^−4 M L-Cys: 0%

## CC(=O)Oc1ccccc1C(=O)O [ASA, acetylsalicylic acid, reference compound]
  NO Release Data %NO2− (mol/mol), 50 × 10^−4 M L-Cys: 0%

## 3-((2-(3-Hydroxybenzoyl)hydrazono)methyl)-4-methyl-1,2,5-oxadiazole 2-oxide [Compound 3a]
  NO Release Data %NO2− (mol/mol), 50 × 10^−4 M L-Cys: 2.0 ± 0.7%

## CC(=O)Oc1ccccc1C(=O)Oc1ccc(C(=O)N/N=C/c2c(-c3ccccc3)no[n+]2[O-])cc1 [Compound 9b, (E)-3-((2-(4-((2-Acetoxybenzoyl)oxy)benzoyl)hydrazono)methyl)-4-phenyl-1,2,5-oxadiazole 2-oxide]
  NO Release Data %NO2− (mol/mol), 50 × 10^−4 M L-Cys: 7.9 ± 1.3%

## O=C(NN=Cc1ccc2c(c1)no[n+]2[O-])c1ccc(O)cc1 [Compound 13b, 5-((2-(4-Hydroxybenzoyl)hydrazono)methyl)benzo[c][1,2,5]oxadiazole 1-oxide]
  NO Release Data %NO2− (mol/mol), 50 × 10^−4 M L-Cys: 0%

## O=C(NN=Cc1c(-c2ccccc2)no[n+]1[O-])c1ccc(O)cc1 [Compound 8b, 3-((2-(4-Hydroxybenzoyl)hydrazono)methyl)-4-phenyl-1,2,5-oxadiazole 2-oxide]
  NO Release Data %NO2− (mol/mol), 50 × 10^−4 M L-Cys: 7.5 ± 0.9%

## CC(=O)Oc1ccccc1C(=O)Oc1cccc(C(=O)N/N=C/c2ccc3c(c2)no[n+]3[O-])c1 [Compound 14a, (E)-5-((2-(3-((2-Acetoxybenzoyl)oxy)benzoyl)hydrazono)methyl)benzo[c][1,2,5]oxadiazole 1-oxide]
  NO Release Data %NO2− (mol/mol), 50 × 10^−4 M L-Cys: 0%

## (E)-3-((2-(3-((2-Acetoxybenzoyl)oxy)benzoyl)hydrazono)methyl)-4-methyl-1,2,5-oxadiazole 2-oxide [Compound 4a]
  NO Release Data %NO2− (mol/mol), 50 × 10^−4 M L-Cys: 2.2 ± 0.4%

## O=C(NN=Cc1c(-c2ccccc2)no[n+]1[O-])c1cccc(O)c1 [Compound 8a, 3-((2-(3-Hydroxybenzoyl)hydrazono)methyl)-4-phenyl-1,2,5-oxadiazole 2-oxide]
  NO Release Data %NO2− (mol/mol), 50 × 10^−4 M L-Cys: 7.6 ± 1.2%

Values joined by “and” are separate entries in the source; they are usually repeats but may differ in a detail not shown here. Identical values can stand only once.
